Data: PubChem BioAssay AID1347431 (National Center for Advancing Translational Sciences (NCATS), 2020)
In all, about 1,200 compounds went through this assay and fewer than 10 were called active. Calls follow the shape of the dose curve; as a rule, active = well fitted curve in the direction sought with a large enough effect; inconclusive = small, poorly fitted or top-dose-only effect, or another doubt; inactive = no such curve, though single readings can be large or run the other way. The list shows a part of the results.

Assay: Confirmatory qHTS assay for inhibitors of Activation Induced Cytidine Deaminase (AID): UDG signals; also: 0% is about no effect
Details: UDG coupled enzyme activity counter-screen
How it was run: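 Fluorescence at 560 nm excitation/665 nm emission reports UDG activity, read after NaOH quench of a 4 h room-temperature reaction of DJC20/DJC23 substrates with AID (1 uM, 4/3x) and UDG (2 U/mL, 4/3x); compounds at 7.32 nM - 114 uM final, preincubated 10 min.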

[1] = at 115 µM (top of the series) unless noted

SMILES: COc1c(C)cccc1C(=O)Nc1cccc2ccc(C)nc12
- activity change, negative = inhibition [1]: inactive: -6.4%

SMILES: CCn1cc(C(=O)OCC(=O)Nc2cccc(C(C)=O)c2)c(=O)c2ccc(C)nc21
- activity change, negative = inhibition [1]: inactive: -4.28%

SMILES: CCOc1ccc(CN2CCc3nc(Nc4ccc(OC)cc4OC)ncc3C2)cc1
- activity change, negative = inhibition [1]: inactive: -3.53%

SMILES: COc1ccc(CNc2oc(-c3ccc(COc4ccccc4C)o3)nc2C#N)cc1
- activity change, negative = inhibition [1]: inactive: -3.1%

SMILES: CC1(C)CCC2=C(O1)c1ccccc1C(=O)C2=O
- activity change, negative = inhibition [1]: inactive: -17.6%

SMILES: Cc1ccc(Cl)cc1N1CCN(Cc2nnc(-c3ccc4c(c3)OCO4)o2)CC1
- activity change, negative = inhibition [1]: inactive: -8.14%

SMILES: O=C1C(SCCO)=C(SCCO)C(=O)c2ccccc21
- activity change, negative = inhibition [1]: inactive: -7.15%

SMILES: CC(C)c1ccc(S(=O)(=O)c2nnn3c2nc(N2CCN(C)CC2)c2sccc23)cc1
- activity change, negative = inhibition [1]: inactive: 5.79%

SMILES: CCCc1cc(=O)n2[nH]c(NC(=O)c3ccc(C(C)(C)C)cc3)nc2n1
- activity change, negative = inhibition [1]: inactive: 14.5%

SMILES: COc1ccc(C(=O)Nc2nc3nc(C)c(Cc4ccccc4)c(=O)n3[nH]2)cc1OC
- activity change, negative = inhibition [1]: inactive: 10.1%

SMILES: CC(=O)c1cccc(NC(=O)c2oc3c(c2C)-c2nn(Cc4ccc(Cl)cc4)cc2CC3)c1
- activity change, negative = inhibition [1]: inactive: 5.33%

SMILES: COc1ccc(S(=O)(=O)c2cnc3ccc(Cl)cc3c2N2CCCCC2C)cc1 (centres undefined)
- activity change, negative = inhibition [1]: inactive: -0.395%

SMILES: COc1cc(Nc2nc(SCC(=O)c3ccc(Br)cc3)nc3ccccc23)cc(OC)c1
- activity change, negative = inhibition [1]: inactive: -5.41%

SMILES: N#C/C(=C\c1ccc(-c2ccc(C(=O)O)cc2)o1)C(=O)Nc1ccccc1C(=O)O
- activity change, negative = inhibition [1]: inactive: 3.94%

SMILES: O=C(NCCc1ccccc1)c1nc(-c2ccc(Cl)cc2)n2c1CCCCC2
- activity change, negative = inhibition [1]: inactive: -14.3%

SMILES: COc1ccccc1NC(=O)CSc1nc(-c2ccc(C(C)(C)C)cc2)c(C#N)c(=O)[nH]1
- activity change, negative = inhibition [1]: inactive: -7.97%

SMILES: CCc1ccc(S(=O)(=O)c2cnc3ccc(OC)cc3c2N2CCCC(C)C2)cc1 (centres undefined)
- activity change, negative = inhibition [1]: inactive: -1.53%

SMILES: Cc1ccc(Nc2c(-c3ccsc3)nc3cccc(C)n23)cc1
- activity change, negative = inhibition [1]: inactive: 11.1%

SMILES: COc1ccc(Cl)cc1NC(=O)CSC1=Nc2ccccc2C2=NC(CC(=O)NC3CCCCC3)C(=O)N12 (centres undefined)
- activity change, negative = inhibition [1]: inactive: 5.19%

SMILES: CCC(C(=O)Nc1cc(OC)ccc1OC)n1c(=O)c(C(F)(F)F)nc2ccccc21 (centres undefined)
- activity change, negative = inhibition [1]: inactive: -12.7%

SMILES: CCCCCSc1nnc2c(n1)OC(CC)Nc1ccc(Br)cc1-2 (centres undefined)
- activity change, negative = inhibition [1]: inactive: 6.46%

SMILES: O=C(c1ccc2c(c1)N(Cc1ccccc1Cl)C(=O)c1ccccc1S2)N1CCCC1
- activity change, negative = inhibition [1]: inactive: 0.433%

SMILES: Cc1cc(NC(=O)c2oc3c(c2C)-c2[nH]ncc2CC3)ccc1Br
- activity change, negative = inhibition [1]: inactive: 3.53%

SMILES: COc1ccc(N2C(=O)CSC23C(=O)N(CC(=O)NCc2ccccc2)c2ccccc23)cc1 (centres undefined)
- activity change, negative = inhibition [1]: inactive: 2.37%

SMILES: C=Cc1ccc(CSc2nc(-c3ccccc3C)nc3c2Cc2c(CO)cnc(C)c2O3)cc1
- activity change, negative = inhibition [1]: inactive: -7.44%

SMILES: Cc1cccc(N2CCN(C(=O)C(C)n3nc(C)n4c(cc5occc54)c3=O)CC2)c1C (centres undefined)
- activity change, negative = inhibition [1]: inactive: 2.87%

SMILES: CCn1cc(C(=O)NCCc2ccccc2)c(=O)c2cc(S(=O)(=O)N3CCCCCC3)ccc21
- activity change, negative = inhibition [1]: inactive: -0.945%

SMILES: COc1ccc(S(=O)(=O)N(CC(=O)NC(C)c2ccccc2)c2ccc(C)cc2)cc1OC (centres undefined)
- activity change, negative = inhibition [1]: inactive: -2.48%

SMILES: Cc1ccc2nc(-c3ccccn3)c(Nc3ccccc3C)n2c1
- activity change, negative = inhibition [1]: inactive: -8.36%

SMILES: COc1ccc(-c2nc(CSCC(=O)NCc3ccccc3Cl)c(C)o2)cc1OC
- activity change, negative = inhibition [1]: inactive: 6.04%

SMILES: Cn1c(=O)c2c(-c3ccc(Cl)cc3)n(CCc3ccccc3)cc2n(C)c1=O
- activity change, negative = inhibition [1]: inactive: -10.7%

SMILES: CCCCCN1C(C(=O)c2ccccc2)=C(OC(=O)CC)c2ccccc2S1(=O)=O
- activity change, negative = inhibition [1]: inactive: -0.103%

SMILES: CCc1nc(Nc2ccc(F)c(Cl)c2)c2c3c(sc2n1)CCCC3
- activity change, negative = inhibition [1]: inactive: -7.13%

SMILES: Cc1cccc(N2CCN(C(=O)Cn3ncc4c3-c3cc(C)ccc3OC4)CC2C)c1 (centres undefined)
- activity change, negative = inhibition [1]: inactive: -3.46%

SMILES: Cc1nc2cc(C(=O)NCCC3=CCCCC3)ccc2n1-c1ccc(Br)cc1
- activity change, negative = inhibition [1]: inactive: 0.218%

SMILES: O=C(COc1ccccc1Cl)N(Cc1ccco1)Cc1ccco1
- activity change, negative = inhibition [1]: inactive: -2.8%

SMILES: Cc1ccc2ncc(S(=O)(=O)c3ccccc3)c(N3CCCCC3C)c2c1 (centres undefined)
- activity change, negative = inhibition [1]: inactive: -7.58%

SMILES: N#CC1=C2SCN(C3CCCCC3)CN2C(=O)CC1c1ccc(Br)cc1 (centres undefined)
- activity change, negative = inhibition [1]: inactive: -4.55%

SMILES: CCN(CC)CCCNC(=O)c1ccc2c(c1)N(Cc1c(F)cccc1Cl)C(=O)c1ccccc1S2
- activity change, negative = inhibition [1]: inactive: 3.84%

SMILES: O=C(COc1ccccc1)NCC(c1cccs1)S(=O)(=O)c1ccc(Cl)cc1 (centres undefined)
- activity change, negative = inhibition [1]: inactive: -5.8%

SMILES: CCN(C(=O)Cn1c(SCC(=O)Nc2ccc(OC)cc2)nc2ccccc21)c1cccc(C)c1
- activity change, negative = inhibition [1]: inactive: -15.6%

SMILES: Cc1ccc(COc2ccc3oc(-c4ccccc4)c(C(=O)O)c3c2)cc1
- activity change, negative = inhibition [1]: inactive: 5.26%

SMILES: Cc1ccc(CNC(=O)c2sc3nc4n(c(=O)c3c2C)CCCC4)cc1
- activity change, negative = inhibition [1]: inactive: -1.49%

SMILES: Cc1nn(-c2ccccc2)c(-n2cccc2)c1C(=O)NCCc1ccc(Cl)cc1
- activity change, negative = inhibition [1]: inactive: 0.416%

SMILES: Cc1cccc(CCNc2ncnc3onc(-c4ccc(Cl)cc4)c23)c1
- activity change, negative = inhibition [1]: inactive: -7.85%

SMILES: COc1ccc(CCNC(=O)CSc2cn(CCNC(=O)c3cccc(C(F)(F)F)c3)c3ccccc23)cc1OC
- activity change, negative = inhibition [1]: inactive: -4.31%

SMILES: Cc1ccc(NC(=O)CSc2ncc(S(=O)(=O)c3ccc(C(C)C)cc3)c(=O)[nH]2)cc1C
- activity change, negative = inhibition [1]: inactive: -0.608%

SMILES: Cc1ccc(C(=O)c2cn(Cc3cccc(C)c3)c3nc(C)ccc3c2=O)cc1
- activity change, negative = inhibition [1]: inactive: -3.56%

SMILES: COc1cc2nc(NC(=O)c3ccc(S(=O)(=O)N4CCc5ccccc54)cc3)sc2cc1OC
- activity change, negative = inhibition [1]: inactive: 3.33%

SMILES: CCN(CCCNC(=O)c1cc2c(=O)n(CC)c3ccccc3c2s1)Cc1ccccc1
- activity change, negative = inhibition [1]: inactive: -11.7%

SMILES: COc1ccc(-c2cn3c(n2)sc2cc(C(=O)NCCCN4CCCCC4)ccc23)cc1
- activity change, negative = inhibition [1]: inactive: -3.99%

SMILES: CC(C)(Sc1ccc(CCN(CCCCC2CCCCC2)C(=O)NC2CCCCC2)cc1)C(=O)O
- activity change, negative = inhibition (at 115 µM (top of the series)): inactive: -1.42% [middle of 4 runs]
- activity change, negative = inhibition (at 230 µM (top of the series)): inactive: 1.92%

SMILES: CSc1ccc2c(c1)N(CCC1CCCCN1C)c1ccccc1S2 (centres undefined)
- activity change, negative = inhibition [1]: inactive: 2.35%
